Data as given in paper PMC12143549.

Target: HA-tagged PDCoV membrane (M) protein (pCAGGS-HA-M) (porcine deltacoronavirus (PDCoV))
Experiment: co-IP; HEK-293T co-transfected with an HA-tagged and a Flag-tagged construct, 24 h; lysate precipitated with anti-HA antibody overnight at 4°C, protein A + G agarose; western blot; for SIRT5 and M also after FK866 (20 nM), NMN (100 µM) or both (FK866 reduced, NMN enhanced the interaction)

B1: Flag-tagged PEX12 (protein, UniProt F1S181 1-359)
chain: MAEHGAHITTASVVDDQPSIFEVVAQESLMTAVRPALQHVVKVLAESNPAHYGFFWRWFDEIFTVLDLLLQQHYLSKTSASFSENFYGLKRIVMGDTQKLQRLASAGLPKRQLWKSIMFLVLLPYLKVKLEKLVSSLREEDEYSIHPPSSRWKQFYRAFLAAYPFVNMAWEGWFLVQQLQYILGKAQHHSPLLSLAGVRLGRLTVHDIQALEHKPAEASMMQQPAGSIGEKIKSALKKAVGGVALSLSTGLSVGVFFLQFLEWWYSSENQETIKSLTALPTPPPPVHLDYNSDSPLLPKMKTVCPLCRKNRVNDTVLATSGYVFCYRCVFNYVRSHQACPITGYPTEVQHLIKLYSPEN
B1 was tested, and the binding was “binds”.

No constants are given. Whether binding was seen depends on the method and setting. Binding seen in cells or lysates may run through a third protein. Binding calls can cover weak binding; strength is not graded here. Sequences can lack the tags named with a protein.
